For at least one compound, name, drawing or mass did not settle the structure.
Legend:
[1] = test system: sensitive medulloblastoma tumor cells; test: ex-vivo medulloblastoma proliferation assay (3H thymidine, 48 h), sensitive tumor cells; type: cell-based, mouse; conditions: in words
Method: (§1) The effect of statins (e.g., simvastatin, flustatin) on the proliferation of medulloblastoma cells derived from sensitive and resistant Ptch+/− cells was evaluated by using an “ex-vivo medulloblastoma proliferation assay.” Using Ptch+/−p53−/−, Ptch+/−Hic+/− or Ptch+/− medulloblastoma tumors freshly harvested from allografted nude mice, we have developed a short-term 48 h proliferation assay that enables us to assess the in vitro potency of Smo inhibitors. The read-out for proliferation uses incorporation of 3H thymidine. The assay reflects the in vivo sensitivity of tumor cells to Compound 1.
(§2) The effect of PI3K inhibitors (e.g., compounds such as Compound A) on the proliferation of medulloblastoma cells derived from sensitive and resistant medulloblastoma cells was evaluated by using an “ex-vivo medulloblastoma proliferation assay,” as described above.

[2] = test system: resistant medulloblastoma tumor cells; test: ex-vivo medulloblastoma proliferation assay (3H thymidine, 48 h), resistant tumor cells; type: cell-based, mouse; conditions: in words
Method: as §1, §2

For `CCC(C)(C)C(=O)O[C@H]1C[C@@H](C)C=C2C=C[C@H](C)[C@H](CC[C@@H]3C[C@@H](O)CC(=O)O3)[C@H]21` [Simvastatin, reference compound], the IC50 [1] was “low nanomolar range” and the IC50 [2] was “low nanomolar range”.
